Assay [1] concerns the target T1, pBridge-PIF5 (PHYTOCHROME-… FACTOR 5) (Arabidopsis thaliana) (UniProt Q84LH8).
T1 sequence: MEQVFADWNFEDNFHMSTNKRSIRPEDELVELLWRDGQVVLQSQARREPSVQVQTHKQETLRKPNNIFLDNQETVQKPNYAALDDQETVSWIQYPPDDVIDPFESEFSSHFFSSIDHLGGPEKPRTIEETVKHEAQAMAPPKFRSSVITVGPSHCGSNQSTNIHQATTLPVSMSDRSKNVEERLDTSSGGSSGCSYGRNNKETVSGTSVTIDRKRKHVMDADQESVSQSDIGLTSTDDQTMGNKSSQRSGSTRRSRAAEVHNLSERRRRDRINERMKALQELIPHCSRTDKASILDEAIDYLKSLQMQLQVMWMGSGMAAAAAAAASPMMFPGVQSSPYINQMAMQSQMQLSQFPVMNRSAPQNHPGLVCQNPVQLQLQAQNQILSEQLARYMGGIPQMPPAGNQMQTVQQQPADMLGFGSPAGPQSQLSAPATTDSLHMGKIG
The assay can be described thus: yeast three-hybrid; AD-EIN3 (pGADT7) with pBridge-PIF5-FHY3 (FHY3 co-expressed); yeast AH109; growth on SD/-Trp/-Leu/-Met/-His.

The target in assay [2] is T1, pBridge-PIF5 (PHYTOCHROME-… FACTOR 5) (Arabidopsis thaliana). The assay can be described thus: yeast three-hybrid; AD-EIN3 (pGADT7) with pBridge-PIF5, without FHY3; yeast AH109; growth on SD/-Trp/-Leu/-Met/-His.
In assay [3] the target is T2, FHY3 (FAR-RED ELONGATED HYPOCOTYL 3), third protein expressed from pBridge-PIF5-FHY3 (Arabidopsis thaliana) (UniProt Q9LIE5).
T2 sequence: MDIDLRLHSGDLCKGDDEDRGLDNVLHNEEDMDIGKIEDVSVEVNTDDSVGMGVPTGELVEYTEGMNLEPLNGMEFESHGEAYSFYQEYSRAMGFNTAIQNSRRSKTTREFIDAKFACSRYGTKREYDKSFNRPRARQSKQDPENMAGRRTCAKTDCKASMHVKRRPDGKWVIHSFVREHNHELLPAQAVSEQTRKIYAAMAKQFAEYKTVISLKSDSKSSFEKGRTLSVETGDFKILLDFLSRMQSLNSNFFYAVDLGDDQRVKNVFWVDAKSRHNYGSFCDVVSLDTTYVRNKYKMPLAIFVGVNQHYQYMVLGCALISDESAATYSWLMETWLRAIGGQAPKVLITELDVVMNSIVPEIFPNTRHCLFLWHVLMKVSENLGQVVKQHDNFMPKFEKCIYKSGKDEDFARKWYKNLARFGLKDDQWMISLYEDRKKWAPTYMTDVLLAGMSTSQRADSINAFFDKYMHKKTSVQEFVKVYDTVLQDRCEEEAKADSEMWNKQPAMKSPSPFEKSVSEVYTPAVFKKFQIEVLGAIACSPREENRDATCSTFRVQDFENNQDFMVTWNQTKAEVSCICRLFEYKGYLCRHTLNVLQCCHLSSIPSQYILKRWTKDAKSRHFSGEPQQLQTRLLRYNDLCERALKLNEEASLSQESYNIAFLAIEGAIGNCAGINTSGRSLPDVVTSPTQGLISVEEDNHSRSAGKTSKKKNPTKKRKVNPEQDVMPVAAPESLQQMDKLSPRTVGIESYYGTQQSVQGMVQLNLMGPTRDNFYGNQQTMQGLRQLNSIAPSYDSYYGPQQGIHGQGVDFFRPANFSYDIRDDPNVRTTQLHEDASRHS
The assay is described as follows: yeast three-hybrid; AD-EIN3 (pGADT7) with pBridge-PIF5-FHY3 (FHY3 co-expressed); yeast AH109; growth on SD/-Trp/-Leu/-Met/-His.

Drawing on publication PMC8584998, “Arabidopsis FHY3 and FAR1 Function in Age Gating of Leaf Senescence”, this text covers binding for two molecules.

No constants are given. Whether binding was seen depends on the method and setting. Some results given as binding are weak or reduced against the parent protein; the word gives no strength. For part of these data: Where a sequence is shown, tags or fusion partners need not be part of it.

B1: FHY3 (FAR-RED ELONGATED HYPOCOTYL 3), third protein expressed from pBridge-PIF5-FHY3 (protein, UniProt Q9LIE5 1-839)
chain: MDIDLRLHSGDLCKGDDEDRGLDNVLHNEEDMDIGKIEDVSVEVNTDDSVGMGVPTGELVEYTEGMNLEPLNGMEFESHGEAYSFYQEYSRAMGFNTAIQNSRRSKTTREFIDAKFACSRYGTKREYDKSFNRPRARQSKQDPENMAGRRTCAKTDCKASMHVKRRPDGKWVIHSFVREHNHELLPAQAVSEQTRKIYAAMAKQFAEYKTVISLKSDSKSSFEKGRTLSVETGDFKILLDFLSRMQSLNSNFFYAVDLGDDQRVKNVFWVDAKSRHNYGSFCDVVSLDTTYVRNKYKMPLAIFVGVNQHYQYMVLGCALISDESAATYSWLMETWLRAIGGQAPKVLITELDVVMNSIVPEIFPNTRHCLFLWHVLMKVSENLGQVVKQHDNFMPKFEKCIYKSGKDEDFARKWYKNLARFGLKDDQWMISLYEDRKKWAPTYMTDVLLAGMSTSQRADSINAFFDKYMHKKTSVQEFVKVYDTVLQDRCEEEAKADSEMWNKQPAMKSPSPFEKSVSEVYTPAVFKKFQIEVLGAIACSPREENRDATCSTFRVQDFENNQDFMVTWNQTKAEVSCICRLFEYKGYLCRHTLNVLQCCHLSSIPSQYILKRWTKDAKSRHFSGEPQQLQTRLLRYNDLCERALKLNEEASLSQESYNIAFLAIEGAIGNCAGINTSGRSLPDVVTSPTQGLISVEEDNHSRSAGKTSKKKNPTKKRKVNPEQDVMPVAAPESLQQMDKLSPRTVGIESYYGTQQSVQGMVQLNLMGPTRDNFYGNQQTMQGLRQLNSIAPSYDSYYGPQQGIHGQGVDFFRPANFSYDIRDDPNVRTTQLHEDASRHS
For B1, the binding result in assay [1] was “binds”.

B2: AD-EIN3 (ETHYLENE … 3) (protein, UniProt O24606 1-628)
chain: MMFNEMGMCGNMDFFSSGSLGEVDFCPVPQAEPDSIVEDDYTDDEIDVDELERRMWRDKMRLKRLKEQDKGKEGVDAAKQRQSQEQARRKKMSRAQDGILKYMLKMMEVCKAQGFVYGIIPENGKPVTGASDNLREWWKDKVRFDRNGPAAITKYQAENNIPGIHEGNNPIGPTPHTLQELQDTTLGSLLSALMQHCDPPQRRFPLEKGVPPPWWPNGKEDWWPQLGLPKDQGPAPYKKPHDLKKAWKVGVLTAVIKHMFPDIAKIRKLVRQSKCLQDKMTAKESATWLAIINQEESLARELYPESCPPLSLSGGSCSLLMNDCSQYDVEGFEKESHYEVEELKPEKVMNSSNFGMVAKMHDFPVKEEVPAGNSEFMRKRKPNRDLNTIMDRTVFTCENLGCAHSEISRGFLDRNSRDNHQLACPHRDSRLPYGAAPSRFHVNEVKPVVGFPQPRPVNSVAQPIDLTGIVPEDGQKMISELMSMYDRNVQSNQTSMVMENQSVSLLQPTVHNHQEHLQFPGNMVEGSFFEDLNIPNRANNNNSSNNQTFFQGNNNNNNVFKFDTADHNNFEAAHNNNNNSSGNRFQLVFDSTPFDMASFDYRDDMSMPGVVGTMDGMQQKQQDVSIWF
For the molecule B2, the binding result in assay [2] is reported as “binds weakly”; in assay [3], “binds”.
